{
  "sequences": {"note": "Sequences of proteins named here, by UniProt entry; tags and fusion partners are left off.", "UniProt Q03395": "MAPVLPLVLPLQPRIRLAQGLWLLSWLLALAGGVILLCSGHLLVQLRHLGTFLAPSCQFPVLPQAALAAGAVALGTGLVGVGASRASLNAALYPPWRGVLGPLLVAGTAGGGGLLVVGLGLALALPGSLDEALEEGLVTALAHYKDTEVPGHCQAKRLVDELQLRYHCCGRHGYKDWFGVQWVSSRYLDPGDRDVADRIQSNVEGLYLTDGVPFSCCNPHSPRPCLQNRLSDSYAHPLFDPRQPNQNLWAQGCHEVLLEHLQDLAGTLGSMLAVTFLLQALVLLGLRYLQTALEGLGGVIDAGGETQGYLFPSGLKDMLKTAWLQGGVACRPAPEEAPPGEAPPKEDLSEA"},
  "source": "paper PMC5443838",
  "about": "“Peripherin-2 and Rom-1 have opposing effects on rod outer segment targeting of retinitis pigmentosa-linked peripherin-2 mutants” (Scientific Reports, 2017)",
  "binders": {"B1": {"name": "N-terminally citrine-tagged per^P210L (peripherin-2 P210L) (protein, UniProt P23942 1-346)", "chain": "MALLKVKFDQKKRVKLAQGLWLMNWFSVLAGIIIFSLGLFLKIELRKRSDVMNNSESHFVPNSLIGMGVLSCVFNSLAGKICYDALDPAKYARWKPWLKPYLAICVLFNIILFLVALCCFLLRGSLENTLGQGLKNGMKYYRDTDTPGRCFMKKTIDMLQIEFKCCGNNGFRDWFEIQWISNRYLDFSSKEVKDRIKSNVDGRYLVDGVLFSCCNPSSPRPCIQYQITNNSAHYSYDHQTEELNLWVRGCRAALLSYYSSLMNSMGVVTLLIWLFEVTITIGLRYLQTSLDGVSNPEESESESQGWLLERSVPETWKAFLESVKKLGKGNQVEAEGADAGQAPEAG"}, "B2": {"name": "N-terminally citrine-tagged per^C214S (peripherin-2 C214S) (protein, UniProt P23942 1-346)", "chain": "B1 chain with L210P, C214S"}, "B3": {"name": "C-terminally myc- or flag-tagged per^P210L (SDGC construct) (protein, UniProt P23942 1-346)", "chain": "B1 chain"}, "B4": {"name": "C-terminally myc- or flag-tagged per^C214S (SDGC construct) (natural protein, human, UniProt P23942 1-346, looked up)", "chain": "B1 chain with L210P, C214S", "notes": "peripherin-2 (PRPH2), human, adRP-linked mutant C214S; also called per^C214S only; per^MT; source: HEK293T, transiently transfected, in lysate (0.5% Triton X-100)"}, "B5": {"name": "N-terminally citrine-tagged per^WT expressed in mouse rods (protein, UniProt P23942 1-346)", "chain": "B1 chain with L210P"}, "B6": {"name": "N-terminally citrine-tagged per^P210L expressed in mouse rods (protein, UniProt P23942 1-346)", "chain": "B1 chain"}, "B7": {"name": "N-terminally citrine-tagged per^C214S expressed in mouse rods (protein, UniProt P23942 1-346)", "chain": "B1 chain with L210P, C214S"}, "B8": {"name": "N-terminally citrine-tagged per^WT (wild type peripherin-2) (protein, UniProt P23942 1-346)", "chain": "B1 chain with L210P"}},
  "key": {"[1]": {"biological_target": "C-terminally myc-tagged Rom-1 (human) (UniProt Q03395)", "test": "co-IP; membrane preparations of co-transfected HEK293T cells harvested 48 h post transfection; anti-myc antibody (9B11) on Protein G magnetic beads; citrine-tagged partner detected with anti-GFP"}, "[2]": {"biological_target": "T1, C-terminally myc-tagged per^WT (wild type peripherin-2) (human) (UniProt P23942)", "T1 sequence": "B1 chain with L210P", "test": "co-IP; membrane preparations of co-transfected HEK293T cells harvested 48 h post transfection; anti-myc antibody (9B11) on Protein G magnetic beads; citrine-tagged partner detected with anti-GFP"}, "[3]": {"biological_target": "C-terminally myc- or flag-tagged Rom-1 (SDGC construct) (human) (UniProt Q03395)", "test": "sucrose density gradient centrifugation; lysate of transfected HEK293T cells (0.5% Triton X-100, 150 mM NaCl, 2 mM CaCl2) on a 5-20% sucrose gradient with 0.1% Triton X-100 and 10 mM N-ethylmaleimide, 46,700 rpm, 2 h, 4 °C; 11 fractions immunoblotted with myc- or flag-specific antibodies under non-reducing conditions; DNA standards for size"}, "[4]": {"biological_target": "T2, C-terminally myc- or flag-tagged per^WT (SDGC construct) (human) (UniProt P23942)", "T2 sequence": "B1 chain with L210P", "test": "sucrose density gradient centrifugation; lysate of transfected HEK293T cells (0.5% Triton X-100, 150 mM NaCl, 2 mM CaCl2) on a 5-20% sucrose gradient with 0.1% Triton X-100 and 10 mM N-ethylmaleimide, 46,700 rpm, 2 h, 4 °C; 11 fractions immunoblotted with myc- or flag-specific antibodies under non-reducing conditions; DNA standards for size"}, "[5]": {"biological_target": "T3, N-terminally cerulean-tagged per^WT expressed in mouse rods (human) (UniProt P23942)", "T3 sequence": "B1 chain with L210P", "test": "FRET or BRET; 3 cube FRET on single rod OS isolated four weeks after subretinal co-injection of rAAVs into wild type mice (six pooled retinas for each FRET pair); FRET imaging solution pH 7.4, RT"}, "[6]": {"biological_target": "T1, C-terminally myc-tagged per^WT (wild type peripherin-2) (human)", "test": "co-IP; peptide competition assay: membrane preparations of HEK293T cells co-transfected with myc- and citrine-tagged per^WT, with 10 mM peptide or peptide-free, incubated with myc-antibody-coupled magnetic beads 30 min at room temperature"}},
  "note": "Where a chain is given by its changes, count along the chain named. Names may count otherwise. Results are given in words; binding and its absence hold for the method and conditions named. For part of these data: Binding seen in cells or lysates may run through a third protein. Some binding calls cover weakened binding; strength is not graded here. Tags and fused reporters may be left off the sequences shown.",
  "data": [
    {"binder": "B1", "values": [
      {"measurement": "binding", "setting": "[1]", "value": "binds"},
      {"measurement": "binding", "setting": "[2]", "value": "binds"}
    ]},
    {"binder": "B2", "values": [
      {"measurement": "binding", "setting": "[1]", "value": "binds"},
      {"measurement": "binding", "setting": "[2]", "value": "binds"}
    ]},
    {"binder": "B3", "values": [
      {"measurement": "binding", "setting": "[3]", "value": "binds"},
      {"measurement": "binding", "setting": "[4]", "value": "binds"}
    ]},
    {"binder": "B4", "values": [
      {"measurement": "binding", "setting": "[3]", "value": "binds"},
      {"measurement": "binding", "setting": "[4]", "value": "binds"}
    ]},
    {"binder": "B5", "values": [
      {"measurement": "binding", "setting": "[5]", "value": "binds"}
    ]},
    {"binder": "B6", "values": [
      {"measurement": "binding", "setting": "[5]", "value": "binds"}
    ]},
    {"binder": "B7", "values": [
      {"measurement": "binding", "setting": "[5]", "value": "binds"}
    ]},
    {"binder": "B8", "values": [
      {"measurement": "binding", "setting": "[6]", "value": "binds"}
    ]}
  ]
}
